In this data set the target is T1, Noc (Bacillus subtilis) (UniProt P37524).
T1 sequence (looked up, limits assumed): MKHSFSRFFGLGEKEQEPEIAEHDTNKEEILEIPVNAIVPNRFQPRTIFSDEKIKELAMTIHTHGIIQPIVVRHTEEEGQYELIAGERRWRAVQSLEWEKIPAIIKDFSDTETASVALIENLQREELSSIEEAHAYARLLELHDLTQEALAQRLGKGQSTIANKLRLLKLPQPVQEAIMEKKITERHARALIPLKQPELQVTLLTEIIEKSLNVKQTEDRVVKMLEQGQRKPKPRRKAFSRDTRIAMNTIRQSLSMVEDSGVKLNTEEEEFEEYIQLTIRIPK
The data set can be described thus: BLI. As to conditions: no nucleotide, nucleation only; BLI: 100 mM Tris-HCl pH 8.0, 150 mM NaCl, 1 mM MgCl2, 0.005% Tween 20, 22 C; 1 uM Noc dimer +/- 1 mM NTP; recombinant protein; protein details: C-terminal His6; label: biotin at M13F end; letters put together from the description.

Construct, isoform or probe ends are uncertain for at least one entry. At least one verdict rests on a figure or table, not on a statement of the authors. Tags and fusion partners may be left off the protein sequences shown.

As for “CGCCAGGGTTTTCCCAGTCACGACGTTGTAAAACGACGGCCAGAATTCGCAACGTGTATTTCCCGGGAAATAGCCTTGAACTGATAACGACTCTATCATTGATAGAGTGTTCTCTCCACGG / GATCCCGTGGAGAGAACACTCTATCAATGATAGAGTCGTTATCAGTTCAAGGCTATTTCCCGGGAAATACACGTTGCGAATTCTGGCCGTCGTTTTACAACGTCGTGACTGGGAAAACCCTGGCG [170 bp NBS DNA, BamHI-cut (open)]”, the binding result is recorded as “binds”.

These data come from paper PMC8429893, “CTP regulates membrane-binding activity of the nucleoid occlusion protein Noc” (Molecular Cell, 2021).
